Source: article PMC8727025
Results are given in words; binding and its absence hold for the method and conditions named. For some assays here: Binding seen in cells or lysates may run through a third protein. Some binding calls cover weakened binding; strength is not graded here.

Chains of the proteins cited; added tags and fusions are not shown. Lines headed by an entry give the natural chain unless they say otherwise; changes in a name come on top. A line that says so, or that is headed by a name, gives the form on record, which may keep a tag or linker.
GFP-GBF1 (wild type) immunoprecipitated from cells expressing inactive SrcKM (Q92538, form named): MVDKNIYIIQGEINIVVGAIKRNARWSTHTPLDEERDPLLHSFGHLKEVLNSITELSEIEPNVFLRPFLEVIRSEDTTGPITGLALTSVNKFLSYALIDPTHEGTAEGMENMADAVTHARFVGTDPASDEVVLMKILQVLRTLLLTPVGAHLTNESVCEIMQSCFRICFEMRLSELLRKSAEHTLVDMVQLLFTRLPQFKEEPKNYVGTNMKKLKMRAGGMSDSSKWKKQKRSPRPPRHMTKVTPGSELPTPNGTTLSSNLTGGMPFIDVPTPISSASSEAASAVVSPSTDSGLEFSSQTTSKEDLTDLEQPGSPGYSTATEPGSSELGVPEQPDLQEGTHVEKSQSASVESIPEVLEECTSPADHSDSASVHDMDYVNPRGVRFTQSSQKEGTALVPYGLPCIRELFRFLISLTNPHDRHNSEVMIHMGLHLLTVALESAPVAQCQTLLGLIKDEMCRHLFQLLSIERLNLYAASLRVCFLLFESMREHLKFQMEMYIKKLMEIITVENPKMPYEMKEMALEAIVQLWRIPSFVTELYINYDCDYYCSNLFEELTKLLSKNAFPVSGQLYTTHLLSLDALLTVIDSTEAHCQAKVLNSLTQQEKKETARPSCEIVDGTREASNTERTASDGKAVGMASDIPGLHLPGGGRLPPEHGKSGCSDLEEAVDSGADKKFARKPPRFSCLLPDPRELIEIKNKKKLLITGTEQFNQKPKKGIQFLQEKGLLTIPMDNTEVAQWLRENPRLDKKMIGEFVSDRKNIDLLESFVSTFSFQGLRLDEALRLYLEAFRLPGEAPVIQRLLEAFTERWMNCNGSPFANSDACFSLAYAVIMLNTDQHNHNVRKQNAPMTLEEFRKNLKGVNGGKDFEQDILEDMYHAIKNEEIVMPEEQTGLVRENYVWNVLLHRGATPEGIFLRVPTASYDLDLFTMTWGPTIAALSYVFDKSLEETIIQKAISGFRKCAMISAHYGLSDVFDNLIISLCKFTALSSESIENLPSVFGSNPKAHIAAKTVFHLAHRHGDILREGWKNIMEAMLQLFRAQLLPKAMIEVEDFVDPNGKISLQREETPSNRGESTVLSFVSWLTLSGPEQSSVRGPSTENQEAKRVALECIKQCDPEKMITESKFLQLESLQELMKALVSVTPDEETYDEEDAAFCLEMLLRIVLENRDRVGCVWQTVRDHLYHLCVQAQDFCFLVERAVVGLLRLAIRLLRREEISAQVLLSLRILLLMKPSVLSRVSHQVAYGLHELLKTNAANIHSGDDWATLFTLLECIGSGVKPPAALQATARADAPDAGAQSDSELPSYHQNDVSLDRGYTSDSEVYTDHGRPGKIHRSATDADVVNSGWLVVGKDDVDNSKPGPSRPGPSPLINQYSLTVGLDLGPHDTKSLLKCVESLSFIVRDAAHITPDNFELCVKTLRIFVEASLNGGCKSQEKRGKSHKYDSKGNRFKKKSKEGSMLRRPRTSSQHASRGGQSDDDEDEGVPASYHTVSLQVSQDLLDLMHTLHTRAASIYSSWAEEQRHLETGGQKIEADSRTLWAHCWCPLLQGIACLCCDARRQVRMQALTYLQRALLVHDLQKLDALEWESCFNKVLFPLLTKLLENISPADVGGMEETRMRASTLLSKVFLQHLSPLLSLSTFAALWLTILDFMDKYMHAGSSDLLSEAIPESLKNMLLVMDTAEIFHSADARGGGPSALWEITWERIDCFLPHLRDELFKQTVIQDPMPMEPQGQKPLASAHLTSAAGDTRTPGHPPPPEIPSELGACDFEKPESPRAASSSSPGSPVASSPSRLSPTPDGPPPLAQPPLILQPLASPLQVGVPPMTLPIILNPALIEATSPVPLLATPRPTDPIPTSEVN
UniProt P84077: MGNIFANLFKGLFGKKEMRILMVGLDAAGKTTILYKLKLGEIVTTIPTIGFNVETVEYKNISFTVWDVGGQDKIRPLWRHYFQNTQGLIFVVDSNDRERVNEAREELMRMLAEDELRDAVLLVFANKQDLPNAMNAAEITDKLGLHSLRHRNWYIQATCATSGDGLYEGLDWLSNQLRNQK

Assays:
[1] = biological target: GFP-GBF1 (wild type) immunoprecipitated from cells expressing inactive SrcKM (human) (UniProt Q92538); assay: pull-down; in vitro Arf1 binding assay: NGFP-GBF1 (wild type or mutant) immunoprecipitated on GFP-trap agarose beads from cells expressing SrcKM or SrcEG, incubated with 10 µg recombinant Arf1-del17 protein for 1 hr at 4°C in the presence of GDP; washed three times with HKMT buffer (20 mM HEPES pH 7.4, 0.1 M KCl, 1 mM MgCl2, 0.5% Triton X-100); bound Arf1 by western blot; both purified
[2] = biological target: GFP-GBF1 (wild type) immunoprecipitated from cells expressing inactive SrcKM (human) (UniProt Q92538); assay: pull-down; in vitro Arf1 binding assay: NGFP-GBF1 immunoprecipitated on GFP-trap agarose beads from cells expressing SrcKM or SrcEG, incubated with 4 mg lysate of HEK293T cells expressing Arf1-V5 (pre-cleared) for 1 hr at 4°C in the presence of GDP; washed three times with HKMT buffer (20 mM HEPES pH 7.4, 0.1 M KCl, 1 mM MgCl2, 0.5% Triton X-100); bound Arf1 by immunoblot; only the target purified

Row | Substance | binding [1] | binding [2]
1 | Arf1-del17-His, recombinant Arf1 deleted of the first 17 amino acids (from UniProt P84077 18-181) (domain or fragment) | binds | 
2 | C-terminal V5-tagged Arf1 (Arf1-V5) (from UniProt P84077 1-181) |  | binds
